Results from PubChem BioAssay AID2685 (National Center for Advancing Translational Sciences (NCATS), 2010).
Some of the results follow. These are further read-outs of the screen, such as a control signal, another cell line or another target. No call is given for them. The list favours compounds with an active or inconclusive main result. Words in brackets tell the shape of the fitted curve; partial curves, single points and poor fits give uncertain potencies.

Assay: qHTS Assay for Lipid Storage Modulators in Drosophila S3 Cells;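 for cell number change: cells counted by Cell Tracker Red CMTPX staining in the red channel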
Conditions: BODIPY lipid droplet fluorescence, 18-24 h; for cell number change: measured here: cell count max response, cells fed with added oleic acid
Procedure, shortened: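 Laser-scanning cytometry quantifies lipid droplet accumulation (500–530 nm total intensity; droplet/cell object ratio) in oleic acid-fed (400 uM added) Drosophila S3 cells treated with a concentration series. 20 uM Triacsin C defined 100% inhibition.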

[1] = measured here: cell number channel AC50, cells fed with added oleic acid
[2] = measured here: lipid fluorescence (Fed channel) AC50, cells fed with added oleic acid

Row | Structure (SMILES) | cell number change | AC50 [1] | AC50 [2]
1 | COc1ccc(NC(=O)Nc2cccc3ccccc23)cc1OC | 36.7% | 23.1 µM [rising, partial curve, poor fit] | 1.3 µM [rising, full curve, poor fit]
2 | Cc1cccc(S(=O)(=O)Nc2cccc3c2C(=O)c2ccccc2-3)c1 | -6.54% | 1.16 µM [rising, partial curve] | 0.461 µM [rising, full curve]
3 | Cc1ccc(CNC(=O)c2cn(C3CCCCC3)c(=O)c3c2c2ccccc2n3C)o1 | – | 2.06 µM [falling, partial curve] | –
4 | COc1ccc(-n2c(CCC(=O)O)ccc2-c2ccc(F)cc2)c(OC)c1 | -2.13% | – | 6.51 µM [rising, single point]
5 | CCN(CC)S(=O)(=O)c1ccc(-c2nnc3sc4cccc(C)c4n23)cc1 | -11.7% | – | –
6 | CCn1c(=NC(=O)CSC(C)=O)sc2ccccc21 | 39.9% | 20.6 µM [rising, single point] | –
7 | O=C(Nc1cccc(C(F)(F)F)c1)c1cccnc1 | 0.446% | – | –
8 | CC1(C)C2CCC(C2)C1(C)NC(=O)CN1CCN(Cc2ccccc2)CC1 (stereo unspecified) | 13% | – | 0.651 µM [rising, full curve, poor fit]
9 | COC(=O)c1ccc(CSc2nc3c(c(=O)n2-c2ccc(C)cc2)SCC3)o1 | 42.3% | 16.4 µM [rising, single point] | 23.1 µM [rising, partial curve]
10 | CCOc1ccc(CCNC(=O)COC(=O)Cc2c[nH]c3ccccc23)cc1OCC | -71.4% | 0.731 µM [falling, full curve] | 0.184 µM [falling, full curve]
11 | CCOC(=O)C1=NOC2C(=O)N(c3ccc(Cl)cc3Cl)C(=O)C12 (stereo unspecified) | -8.49% | – | 0.00461 µM [falling, full curve, poor fit]
12 | Cc1c(O)c(C)c2c(c1O)C(=O)C[C@@H](c1ccccc1)O2 | -2.15% | 7.31 µM [falling, partial curve, poor fit] | –
13 | Cc1ccc(CN2C(=O)C3CCCN3c3ccc(C#N)cc32)cc1 (stereo unspecified) | 25% | – | 20.6 µM [rising, single point]
14 | C/C(=N\Nc1ccc(C(F)(F)F)cc1[N+](=O)[O-])C1CC1 | 2.01% | – | –
15 | O=C(CCNC(=O)c1ccc(Br)o1)NCc1ccccn1 | 5.58% | 6.51 µM [falling, partial curve, poor fit] | 6.51 µM [falling, single point]
16 | CC(CN1CCC(n2nccc2NC(=O)CCCc2ccccc2)CC1)c1ccccc1 (stereo unspecified) | -16.5% | – | 0.206 µM [falling, full curve, poor fit]
17 | c1ccc(NC2=NCCN2CC2CCCCC2)cc1 | -16.3% | 4.11 µM [falling, single point] | 4.11 µM [falling, single point]
18 | COc1ccc(CCC(C)NCC(C)c2ccccc2)cc1 (stereo unspecified) | -3.97% | – | –
19 | O=C(Nc1cccnc1)Nc1cccc([N+](=O)[O-])c1 | 15% | – | 6.51 µM [rising, single point]
20 | COCCNC(=O)c1c(C)cc(C)cc1C | 23.6% | 0.326 µM [falling, single point] | –
21 | CCOC(=O)Nc1sc(C)nc1-c1ccccc1 | -1.11% | – | –

Another view of 4 compounds above:
Row,Structure (SMILES),cell number change,AC50 [1],AC50 [2]
8,CC1(C)C2CCC(C2)C1(C)NC(=O)CN1CCN(Cc2ccccc2)CC1 (stereo unspecified),13%,–,"0.651 µM [rising, full curve, poor fit]"
14,C/C(=N\Nc1ccc(C(F)(F)F)cc1[N+](=O)[O-])C1CC1,2.01%,–,–
15,O=C(CCNC(=O)c1ccc(Br)o1)NCc1ccccn1,5.58%,"6.51 µM [falling, partial curve, poor fit]","6.51 µM [falling, single point]"
16,CC(CN1CCC(n2nccc2NC(=O)CCCc2ccccc2)CC1)c1ccccc1 (stereo unspecified),-16.5%,–,"0.206 µM [falling, full curve, poor fit]"

Carrying on:

Row | Structure (SMILES) | cell number change | AC50 [1] | AC50 [2]
22 | O=C(CCN1C(=O)c2ccccc2S1(=O)=O)Nc1ccccc1O | 16.9% | – | 0.13 µM [falling, full curve, poor fit]
23 | O=C(NCc1ccc2c(c1)OCO2)c1ccc(C2SCC(=O)N2Cc2ccco2)cc1 (stereo unspecified) | 12.1% | 1.16 µM [rising, single point] | 0.651 µM [rising, partial curve]
24 | Cn1c(-c2c(N)n(CCCc3ccccc3)c3nc4ccccc4nc23)nc2ccccc21 | -5.88% | – | 29.1 µM [falling, single point]
25 | Cc1ccccc1CN1CCN(S(=O)(=O)c2ccc(Cl)s2)CC1 | 11.8% | – | 18.4 µM [rising, single point]
26 | Cc1ccc(NC(=O)Cn2ccc([N+](=O)[O-])n2)cc1Cl | 31.6% | – | 0.0116 µM [falling, full curve, poor fit]
27 | O=C(CCN1CCc2ccccc2C1)Nc1ccc(F)cc1 | -10.3% | – | 1.3 µM [rising, partial curve]
28 | N#C/C(=C\c1ccc(Cl)cc1)c1nc2ccccc2o1 | -22.8% | – | 10.3 µM [falling, partial curve]
29 | COc1ccc(N(C(=O)CNC(=O)c2ccco2)C(C(=O)NC2CCCC2)c2ccco2)cc1 (stereo unspecified) | 8.75% | – | –
30 | Cc1coc2cc3oc(=O)c4c(c3cc12)CCCC4 | 0.741% | – | 1.3 µM [rising, partial curve]
31 | Cc1nc(CCNC(=O)C2CCC(=O)N(Cc3cccc(F)c3)C2)sc1C (stereo unspecified) | -10.5% | – | –
32 | COc1ccc2oc(C(=O)N3CCN(c4ncccn4)CC3)c(C)c2c1 | 12.9% | – | 6.51 µM [rising, single point]
33 | Cc1ccc(NC(=O)C(=O)NC2CCCCC2)cc1 | 19.2% | – | 0.0146 µM [rising, full curve]
34 | O=C(N/N=C/c1ccncc1)c1nc(-c2ccccc2)n2c1CCCCC2 | 34.4% | 14.6 µM [rising, partial curve, poor fit] | –
35 | O=C1CCN(CCc2ccccc2)CCN1CCSc1ccccc1 | 10.2% | – | 29.1 µM [falling, single point]
36 | O=C(COc1ccccc1Cl)NCCCNC(=O)c1cccnc1 | 32.1% | 29.1 µM [rising, partial curve, poor fit] | –
37 | CCN(CC)S(=O)(=O)c1cccc(C(=O)NCC2CCCO2)c1 (stereo unspecified) | -6.59% | – | 0.326 µM [rising, full curve, poor fit]
38 | O=C(NNC(=O)C1CCN(S(=O)(=O)c2ccccc2C(F)(F)F)CC1)c1ccccc1O | 82.5% | 4.61 µM [rising, full curve] | –
39 | CCN(C(=O)Cn1nc(C)n2c(cc3cc(C)ccc32)c1=O)c1ccccc1 | -2.29% | – | –
40 | CC1CCCC(NC(=O)CSC2=Nc3ccccc3C3CC=NN23)C1C (stereo unspecified) | -5.91% | 0.0103 µM [rising, full curve, poor fit] | 29.1 µM [falling, single point]
41 | CC1=CC2=NCC(O)CN2C=C1 (stereo unspecified) | -47% | 3.66 µM [falling, full curve] | 3.66 µM [falling, full curve]
42 | COc1ccc(OC)c(NC(=O)C2CCCN(S(=O)(=O)c3ccc(-n4cnnn4)cc3)C2)c1 (stereo unspecified) | -9.57% | – | –

Row | Structure (SMILES) | cell number change | AC50 [1] | AC50 [2]
43 | CC(C)(C)n1nnnc1CN(Cc1cccnc1)Cc1ccccc1Cl | -4.96% | – | 1.46 µM [rising, partial curve]
44 | COc1ccc(C(=O)CC(=O)C(=O)Nc2ccccc2)cc1 | 25.5% | – | –
45 | CCOC(=O)c1cccnc1SC(CC)C(=O)NCc1ccco1 (stereo unspecified) | 71.6% | 23.1 µM [rising, partial curve, poor fit] | 3.66 µM [falling, full curve, poor fit]
46 | C#CCOCCOCCOCCNc1nc(N2CCN(C(=O)[C@H]([C@@H](C)CC)n3cc(CCCN=C(N)N)nn3)CC2)nc(N2CCN(C(=O)[C@H](C)n3cc(CCCN=C(N)N)nn3)CC2)n1 | 2.6% | – | 0.00461 µM [falling, full curve, poor fit]
47 | Cn1c(CS/C(N)=N/N=C/c2ccccc2)c(Br)c(=O)n1-c1ccccc1 | – | – | 2.31 µM [rising, full curve]
48 | CCOc1ccc(C2C(C(=O)c3ccco3)=C(O)C(=O)N2CCN(C)C)cc1 (stereo unspecified) | -19.5% | – | –
49 | CC1CC(C)CN(C(=O)COC(=O)Cc2ccc(Br)cc2)C1 (stereo unspecified) | – | – | 6.51 µM [falling, single point]
50 | O=C(C(Cc1ccccc1)n1cccc1)N1CCCCC1 (stereo unspecified) | -15.9% | 0.82 µM [falling, partial curve, poor fit] | –
51 | CCOC(=O)c1c(C)[nH]c(C)c1S(=O)(=O)NC1CCN(C(=O)OCC)CC1 | – | – | 4.11 µM [falling, partial curve]
52 | CCOc1ccc(/C(O)=C2\C(=O)C(=O)N(CCOCCO)C2c2ccccc2OC)cc1 (stereo unspecified) | -8.77% | – | –
53 | CCc1ccc(/C=N/NC(=O)c2cc(C3CC3)nc3ccccc23)s1 | -15.4% | – | 23.1 µM [rising, partial curve]
54 | C[C@H](NC(=O)[C@@H]1Cc2ccccc2CN1)C(=O)NC1CCCCC1 | 6.11% | – | 20.6 µM [rising, single point]
55 | CCc1ccc(N(C(=O)c2csnn2)C(C(=O)NC(C)(C)CC)c2ccccn2)cc1 (stereo unspecified) | – | – | 1.64 µM [falling, single point]
56 | Cc1ccccc1OCC(=O)Nc1nc(C)c(C(=O)N(C)C)s1 | – | – | 29.1 µM [rising, single point]
57 | C=CCNc1c2c(nc3ncnn13)CC(C)CC2 (stereo unspecified) | 56.6% | 2.31 µM [rising, full curve] | 0.731 µM [rising, single point]
58 | Cc1ccc(C)c(-n2c(-c3cccnc3)n[nH]c2=S)c1 | -50% | 29.1 µM [falling, single point] | –
59 | COc1ccccc1CCNC(=O)C(=O)NCC1OCCN1S(=O)(=O)c1cc(F)ccc1F (stereo unspecified) | 7.49% | 0.517 µM [rising, single point] | –
60 | CCn1cc(C(=O)N2CCCC(N3CCN(c4cccc(C(F)(F)F)c4)CC3)C2)cn1 (stereo unspecified) | -24.8% | – | 0.58 µM [falling, single point]
61 | CCOC(=O)Cc1nnc(NC(=O)CSc2ccccc2)s1 | 16.5% | – | –
62 | OC(COc1c(Br)cc(Br)cc1Br)CN1CCOCC1 (stereo unspecified) | -16.3% | – | 0.082 µM [rising, full curve, poor fit]
